Values from PubChem BioAssay AID1224826 (NIAID, 2016)
Test: 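Regulators of Tlr4 signalling leading to Tnf-alpha expression in macrophages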 (primary screen). System: RAW264.7 G9 macrophages from mouse bearing reporters for p65 (GFP) and the Tnf promoter (mCherry). Reagents: siRNA pool against mouse genes, 100 nM. Timing: 16 h of LPS stimulation, after 2 days of siRNA transfection. Challenge: bacterial lipopolysaccharide (Salmonella minnesota R595), 10 ng/ml. Measurement: 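Imaged Tnf reporter mCherry in nuclei, minus background, normalised per plate to the median and expressed as robust z-scores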. Scale: Tnf reporter robust z-score: higher = stronger Tnf promoter reporter signal after LPS. Hit rule: 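a well counts as active at a score of -1.3 or below (Tlr4 knock-down control median) or above 3 (raised signal); controls and wells holding fewer than 50 cells are excluded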. Calls: active = Tnf reporter clearly lowered or raised; inactive = no clear change in Tnf reporter.
The whole screen tested about 17,000 reagents; this is a part drawn at random. About 1,110 of all reagents (6.6%) were called active. 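Active means lowered or raised reporter signal; replicate intensities are raw and not normalised per plate.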 Reagents against one gene are numbered here. Further read-outs or replicates are left out here.

Wnt2 (WNT family member 2): Tnf reporter robust z-score = -0.42; fewer than 50 cells in well = enough cells in well; outcome = inactive
F10 (coagulation factor X): Tnf reporter robust z-score = -0.39; fewer than 50 cells in well = enough cells in well; outcome = inactive
Opn4 (opsin 4 (melanopsin)): Tnf reporter robust z-score = 0.66; fewer than 50 cells in well = enough cells in well; outcome = inactive
Rnf26 (ring finger protein 26): fewer than 50 cells in well = fewer than 50 cells per well; well left out of calls; outcome = inactive
Ccn5 (cellular communication network factor 5): Tnf reporter robust z-score = 1.04; fewer than 50 cells in well = enough cells in well; outcome = inactive
Slc25a29: Tnf reporter robust z-score = 0.18; fewer than 50 cells in well = enough cells in well; outcome = inactive
Pip (prolactin induced protein): Tnf reporter robust z-score = 1.63; fewer than 50 cells in well = enough cells in well; outcome = inactive
Atp8b5 (ATPase, class I, type 8B, member 5): Tnf reporter robust z-score = 2.24; fewer than 50 cells in well = enough cells in well; outcome = inactive
Fpr1 (formyl peptide receptor 1): Tnf reporter robust z-score = -1.15; fewer than 50 cells in well = enough cells in well; outcome = inactive
Mrpl52 (mitochondrial ribosomal protein L52): Tnf reporter robust z-score = -0.18; fewer than 50 cells in well = enough cells in well; outcome = inactive
Gimap7 (GTPase, IMAP family member 7): Tnf reporter robust z-score = -1.34; fewer than 50 cells in well = enough cells in well; outcome = active
Reg3b (regenerating islet-derived 3 beta): Tnf reporter robust z-score = 0.09; fewer than 50 cells in well = enough cells in well; outcome = inactive
Tecta (tectorin alpha): Tnf reporter robust z-score = 0.27; fewer than 50 cells in well = enough cells in well; outcome = inactive
D3Ertd751e (DNA segment, Chr 3, ERATO Doi 751, expressed): Tnf reporter robust z-score = 0.67; fewer than 50 cells in well = enough cells in well; outcome = inactive
Nav2 (neuron navigator 2): Tnf reporter robust z-score = -0.17; fewer than 50 cells in well = enough cells in well; outcome = inactive
Slc8a1 #1: Tnf reporter robust z-score = 0.17; fewer than 50 cells in well = enough cells in well; outcome = inactive
Slc8a1 #2: Tnf reporter robust z-score = 0.06; fewer than 50 cells in well = enough cells in well; outcome = inactive
Jam2 (junction adhesion molecule 2): Tnf reporter robust z-score = 0.86; fewer than 50 cells in well = enough cells in well; outcome = inactive
Spsb1 (splA/ryanodine receptor domain and SOCS box containing 1): Tnf reporter robust z-score = -0.35; fewer than 50 cells in well = enough cells in well; outcome = inactive
Vmn1r46 (vomeronasal 1 receptor 46): Tnf reporter robust z-score = 1.13; fewer than 50 cells in well = enough cells in well; outcome = inactive
Slc35f5: fewer than 50 cells in well = fewer than 50 cells per well; well left out of calls; outcome = inactive

3 consecutive records from above, for reference:
Slc8a1 #1: Tnf reporter robust z-score = 0.17; fewer than 50 cells in well = enough cells in well; outcome = inactive
Slc8a1 #2: Tnf reporter robust z-score = 0.06; fewer than 50 cells in well = enough cells in well; outcome = inactive
Jam2 (junction adhesion molecule 2): Tnf reporter robust z-score = 0.86; fewer than 50 cells in well = enough cells in well; outcome = inactive
